The list does not hold the whole screen: it is rich in T/C values a quarter to a half above the control, in often repeated tests (any T/C) and in doses without a T/C. Further doses and runs are listed elsewhere. T/C gives the treated animals as a percentage of the vehicle group. Schedule codes are those of the source, taken here to give the interval after Q, in days (D) or hours (H), and the number of doses after X. Some T/C values carry the count of animals alive at the toxicity check (mostly the fifth day); where none is given, no animal had died by that day. Some entries were tested several times; the values are given in rising order. Some doses have a count of surviving animals in place of a T/C: the source files T/C as zero there, which appears to mark a toxic dose or a test without result, not a measured value. Some doses without a T/C left all or most animals alive at the check, yet need not have been tolerated: the source hardly ever lists a survival T/C far under the control, and the zero likely stands for such cases as well. Counts of survivors are from the toxicity check (mostly the fifth day) where no day follows; animals may have died later. Counts like (3×) count equal records among those shown. For survival time, the PubChem record calls one and a half times the control and up active, and a quarter to a half above the control has no call in these data; cut-offs in other NCI protocols can differ.
Test system: BDF1 mice, colon carcinoma 38 sc, T/C %
Assay: NCI In Vivo Anticancer Drug Screen. Data for tumor model Colon Carcinoma 38 (subcutaneous) in B6D2F1 (BDF1) mice
Outline: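 Transplantable tumor in mice; compound-treated vs vehicle-dosed controls. Measured survival or tumor size; value = T ÷ C.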

[1] = T/C endpoint: median tumor weight (est.), dose: 100.0 mg/kg/injection, schedule: Q07DX002 (ip), vehicle: saline with Tween-80, higher T/C = larger tumour
[2] = T/C endpoint: median tumor weight (est.), dose: 200.0 mg/kg/injection, schedule: Q07DX002 (ip), vehicle: saline with Tween-80, higher T/C = larger tumour
[3] = T/C endpoint: median tumor weight (est.), dose: 200.0 mg/kg/injection, schedule: Q07DX002 (ip), vehicle: saline, higher T/C = larger tumour
[4] = T/C endpoint: median tumor weight (est.), dose: 400.0 mg/kg/injection, schedule: Q07DX002 (ip), vehicle: saline with Tween-80, higher T/C = larger tumour
[5] = T/C endpoint: median tumor weight (est.), dose: 12.5 mg/kg/injection, schedule: Q07DX002 (ip), vehicle: saline, evaluated on day 20, higher T/C = larger tumour
[6] = T/C endpoint: median tumor weight (est.), dose: 6.25 mg/kg/injection, schedule: Q07DX002 (ip), vehicle: Klucel (hydroxypropylcellulose) (HPC), evaluated on day 20, higher T/C = larger tumour
[7] = T/C endpoint: median tumor weight (est.), dose: 100.0 mg/kg/injection, schedule: Q07DX002 (ip), vehicle: Klucel (hydroxypropylcellulose) (HPC), evaluated on day 20, higher T/C = larger tumour

## NC(C/[N+]([O-])=N/O)C(=O)O (configuration not stated)
T/C endpoint: median survival time, dose: 8.78 mg/kg/injection, schedule: Q01DX010 (ip), vehicle: alkali diluted with saline, evaluated on day 33, higher T/C = longer survival
  T/C: 113 % of control
T/C endpoint: median survival time, dose: 8.78 mg/kg/injection, schedule: Q01DX010 (ip), vehicle: alkali diluted with saline, evaluated on day 41, higher T/C = longer survival
  T/C: 88 % of control
T/C endpoint: median survival time, dose: 8.78 mg/kg/injection, schedule: Q01DX010 (ip), vehicle: alkali diluted with saline, evaluated on day 80, higher T/C = longer survival
  T/C: 88 % of control
T/C endpoint: median survival time, dose: 8.78 mg/kg/injection, schedule: Q01DX010 (ip), vehicle: alkali diluted with saline, evaluated on day 90, higher T/C = longer survival
  T/C: 114 % of control
T/C endpoint: median survival time, dose: 13.2 mg/kg/injection, schedule: Q01DX010 (ip), vehicle: alkali diluted with saline, evaluated on day 33, higher T/C = longer survival
  T/C: 122 % of control
T/C endpoint: median survival time, dose: 13.2 mg/kg/injection, schedule: Q01DX010 (ip), vehicle: alkali diluted with saline, evaluated on day 41, higher T/C = longer survival
  T/C: 93 % of control
T/C endpoint: median survival time, dose: 13.2 mg/kg/injection, schedule: Q01DX010 (ip), vehicle: alkali diluted with saline, evaluated on day 80, higher T/C = longer survival
  T/C: 92 % of control
T/C endpoint: median survival time, dose: 13.2 mg/kg/injection, schedule: Q01DX010 (ip), vehicle: alkali diluted with saline, evaluated on day 90, higher T/C = longer survival
  T/C: 123 % of control
T/C endpoint: median survival time, dose: 19.8 mg/kg/injection, schedule: Q01DX010 (ip), vehicle: alkali diluted with saline, evaluated on day 33, higher T/C = longer survival
  T/C: 110 % of control
T/C endpoint: median survival time, dose: 19.8 mg/kg/injection, schedule: Q01DX010 (ip), vehicle: alkali diluted with saline, evaluated on day 41, higher T/C = longer survival
  T/C: 117 % of control
T/C endpoint: median survival time, dose: 19.8 mg/kg/injection, schedule: Q01DX010 (ip), vehicle: alkali diluted with saline, evaluated on day 80, higher T/C = longer survival
  T/C: 116 % of control
T/C endpoint: median survival time, dose: 19.8 mg/kg/injection, schedule: Q01DX010 (ip), vehicle: alkali diluted with saline, evaluated on day 90, higher T/C = longer survival
  T/C: 114 % of control
T/C endpoint: median survival time, dose: 29.6 mg/kg/injection, schedule: Q01DX010 (ip), vehicle: alkali diluted with saline, evaluated on day 33, higher T/C = longer survival
  T/C: 134 % of control [9 of 10 alive on day 33]
T/C endpoint: median survival time, dose: 29.6 mg/kg/injection, schedule: Q01DX010 (ip), vehicle: alkali diluted with saline, evaluated on day 41, higher T/C = longer survival
  T/C: 102 % of control
T/C endpoint: median survival time, dose: 29.6 mg/kg/injection, schedule: Q01DX010 (ip), vehicle: alkali diluted with saline, evaluated on day 80, higher T/C = longer survival
  T/C: 102 % of control
T/C endpoint: median survival time, dose: 29.6 mg/kg/injection, schedule: Q01DX010 (ip), vehicle: alkali diluted with saline, evaluated on day 90, higher T/C = longer survival
  T/C: 132 % of control
T/C endpoint: median survival time, dose: 44.4 mg/kg/injection, schedule: Q01DX010 (ip), vehicle: alkali diluted with saline, evaluated on day 33, higher T/C = longer survival
  T/C: 140 % of control [9 of 10 alive on day 33]
T/C endpoint: median survival time, dose: 44.4 mg/kg/injection, schedule: Q01DX010 (ip), vehicle: alkali diluted with saline, evaluated on day 41, higher T/C = longer survival
  T/C: 91 % of control
T/C endpoint: median survival time, dose: 44.4 mg/kg/injection, schedule: Q01DX010 (ip), vehicle: alkali diluted with saline, evaluated on day 80, higher T/C = longer survival
  T/C: 92 % of control
T/C endpoint: median survival time, dose: 44.4 mg/kg/injection, schedule: Q01DX010 (ip), vehicle: alkali diluted with saline, evaluated on day 90, higher T/C = longer survival
  T/C: 141 % of control
T/C endpoint: median survival time, dose: 66.7 mg/kg/injection, schedule: Q01DX010 (ip), vehicle: alkali diluted with saline, higher T/C = longer survival
  survivor count: 4 of 10 on day 33, 5 of 10 on day 41, 9 of 10, 10 of 10
T/C endpoint: median survival time, dose: 100.0 mg/kg/injection, schedule: Q01DX010 (ip), vehicle: alkali diluted with saline, higher T/C = longer survival
  survivor count: 0 of 10 on day 33, 0 of 10 on day 41, 10 of 10 (2×)
T/C endpoint: median survival time, dose: 600.0 mg/kg/injection, schedule: Q04DX005 (ip), vehicle: alkali diluted with saline, higher T/C = longer survival
  survivor count: 10 of 10

## C=C(C)[C@]12CC(C)C34OC(/C=C\C=C\CCCCCCCCC)(O[C@@H]1[C@@H]3[C@@H]1O[C@]1(CO)[C@@H](O)[C@]1(O)C(=O)C(C)=C[C@@H]41)O2 (some centres not stated)
T/C endpoint: median tumor weight (est.), dose: 3.0 mg/kg/injection, schedule: Q07DX002 (ip), vehicle: distilled water + alcohol, higher T/C = larger tumour
  survivor count: 6 of 10 on day 20
T/C endpoint: median tumor weight (est.), dose: 6.0 mg/kg/injection, schedule: Q07DX002 (ip), vehicle: distilled water + alcohol, higher T/C = larger tumour
  survivor count: 1 of 10 on day 20

## CN(C)C=O
T/C endpoint: median tumor weight (est.), dose: 200.0 mg/kg/injection, schedule: Q07DX002 (ip), vehicle: saline, evaluated on day 20, higher T/C = larger tumour
  T/C: 143 % of control
T/C endpoint: median tumor weight (est.), dose: 800.0 mg/kg/injection, schedule: Q07DX002 (ip), vehicle: saline, evaluated on day 20, higher T/C = larger tumour
  T/C: 138 % of control
T/C endpoint: median tumor weight (est.), dose: 1600.0 mg/kg/injection, schedule: Q07DX002 (ip), vehicle: saline, higher T/C = larger tumour
  survivor count: 5 of 10 on day 20
T/C endpoint: median tumor weight (est.), dose: 3200.0 mg/kg/injection, schedule: Q07DX002 (ip), vehicle: saline, higher T/C = larger tumour
  survivor count: 3 of 10 on day 20

## CN1CCN(CCCN2c3ccccc3Sc3ccc(C(F)(F)F)cc32)CC1
T/C endpoint: median tumor weight (est.), dose: 12.5 mg/kg/injection, schedule: Q07DX002 (ip), vehicle: saline with Tween-80, evaluated on day 20, higher T/C = larger tumour
  T/C: 141 % of control
[1]
  survivor count: 6 of 10 on day 20
[2]
  survivor count: 0 of 10 on day 20

## CCN(CC)CCOC(=O)Cc1cccc2c(=O)cc(-c3ccc(Cl)cc3)oc12
[3]
  survivor count: 1 of 10 on day 20
[4]
  survivor count: 0 of 10 on day 20

## C1CNCOC1
[5]
  T/C: 143 % of control
T/C endpoint: median tumor weight (est.), dose: 50.0 mg/kg/injection, schedule: Q07DX002 (ip), vehicle: saline, evaluated on day 20, higher T/C = larger tumour
  T/C: 126 % of control
[3]
  survivor count: 6 of 10 on day 20
T/C endpoint: median tumor weight (est.), dose: 400.0 mg/kg/injection, schedule: Q07DX002 (ip), vehicle: saline, higher T/C = larger tumour
  survivor count: 0 of 10 on day 20

## CNC(=O)n1c(N)nc(-c2ccccc2)c1-c1ccccc1
[2]
  survivor count: 4 of 10 on day 20

## COC1=C(N)C(=O)c2nc(-c3nc(C(=O)O)c(C)c(-c4ccc(OC)c(OC)c4O)c3N)ccc2C1=O
T/C endpoint: median tumor weight (est.), dose: 0.02 mg/kg/injection, schedule: Q07DX003 (ip), vehicle: Klucel (hydroxypropylcellulose) (HPC), evaluated on day 20, higher T/C = larger tumour
  T/C: 136 % of control

## C[C@]12CC[C@@H]3c4ccc(O)cc4CC[C@H]3[C@@H]1CC[C@@H]2O
[6]
  T/C: 143 % of control
T/C endpoint: median tumor weight (est.), dose: 50.0 mg/kg/injection, schedule: Q07DX002 (ip), vehicle: Klucel (hydroxypropylcellulose) (HPC), evaluated on day 20, higher T/C = larger tumour
  T/C: 128 % of control [9 of 10 alive]
[7]
  T/C: 131 % of control [9 of 10 alive]

## CCN(CC)CCNc1ccc(C)c2sc3ccccc3c(=O)c12
[5]
  T/C: 126 % of control
T/C endpoint: median tumor weight (est.), dose: 400.0 mg/kg/injection, schedule: Q07DX002 (ip), vehicle: suspension in saline, higher T/C = larger tumour
  survivor count: 3 of 10 on day 20

## c1cc2n(n1)CCN2
[5]
  T/C: 131 % of control
T/C endpoint: median tumor weight (est.), dose: 50.0 mg/kg/injection, schedule: Q04DX003 (ip), vehicle: saline, evaluated on day 20, higher T/C = larger tumour
  T/C: 130 % of control
T/C endpoint: median tumor weight (est.), dose: 400.0 mg/kg/injection, schedule: Q01DX005 (ip), vehicle: saline, higher T/C = larger tumour
  survivor count: 3 of 10

## C=CC(C)(C)n1cc(C2=C(O)C(=O)C(c3cn(C(C)(C)C=C)c4ccccc34)=C(O)C2=O)c2ccccc21
T/C endpoint: median tumor weight (est.), dose: 5.0 mg/kg/injection, schedule: Q07DX002 (ip), vehicle: DMSO, evaluated on day 20, higher T/C = larger tumour
  T/C: 140 % of control
T/C endpoint: median tumor weight (est.), dose: 10.0 mg/kg/injection, schedule: Q07DX002 (ip), vehicle: DMSO, evaluated on day 20, higher T/C = larger tumour
  T/C: 144 % of control
T/C endpoint: median tumor weight (est.), dose: 160.0 mg/kg/injection, schedule: Q07DX002 (ip), vehicle: DMSO, higher T/C = larger tumour
  survivor count: 0 of 10 on day 20

## Nc1nc(N)c2c(Cl)c(CNc3ccc(Cl)c(Cl)c3)ccc2n1
T/C endpoint: median tumor weight (est.), dose: 3.12 mg/kg/injection, schedule: Q07DX002 (ip), vehicle: saline with Tween-80, evaluated on day 20, higher T/C = larger tumour
  T/C: 126 % of control
[1]
  survivor count: 6 of 10 on day 20
[2]
  survivor count: 3 of 10 on day 20

## CC1(C)CC(=O)C(CSC(=O)c2ccccc2)C(=O)C1
[6]
  T/C: 127 [9 of 10 alive on day 20] and 143 % of control
[7]
  T/C: 136 % of control [9 of 10 alive on day 20]
T/C endpoint: median tumor weight (est.), dose: 200.0 mg/kg/injection, schedule: Q07DX002 (ip), vehicle: Klucel (hydroxypropylcellulose) (HPC), higher T/C = larger tumour
  survivor count: 0 of 10 on day 20 and 5 of 10 on day 20

## CCn1cnc2c(=S)nc[nH]c21
[4]
  survivor count: 6 of 10 on day 20

## CC(C)CC(NC(=O)CF)C(=O)O (configuration not stated)
T/C endpoint: median tumor weight (est.), dose: 20.0 mg/kg/injection, schedule: Q07DX002 (ip), vehicle: saline, higher T/C = larger tumour
  survivor count: 2 of 10 on day 20 and 4 of 10 on day 20

## C[C@H](CCC[C@H](C)OS(=O)(=O)c1ccccc1)OS(=O)(=O)c1ccccc1
T/C endpoint: median tumor weight (est.), dose: 100.0 mg/kg/injection, schedule: Q07DX002 (ip), vehicle: saline with Tween-80, evaluated on day 20, higher T/C = larger tumour
  T/C: 129 % of control [9 of 10 alive on day 20]
[4]
  survivor count: 0 of 10 on day 20
T/C endpoint: median tumor weight (est.), dose: 800.0 mg/kg/injection, schedule: Q07DX002 (ip), vehicle: saline with Tween-80, higher T/C = larger tumour
  survivor count: 0 of 10 on day 20

— PubChem BioAssay AID212 (DTP/NCI, 2004)
